Source: patent US20030044471A1, “Antibacterial and mildew-proofing agents and antibactieral and mildew-proofing compositions” (priority 2000, published 2003)
For at least one compound, name, drawing or mass did not settle the structure.

Key:
Experiment in all cases: growth inhibition zone around 8 mm disc tablet on culture medium
[1] = test system: Pseudomonas aeruginosa:ATCC15442; assay type: cell-based; settings: cultured at 30° C. for 48 hours
[2] = test system: Candida albicans: ATCC10231; assay type: cell-based; settings: cultured at 25° C. for 72 hours
[3] = test system: Escherichia coli:ATCC8739; assay type: cell-based; settings: cultured at 30° C. for 48 hours
Aspergillus niger = assay type: cell-based; settings: cultured at 25° C. for 72 hours
Penicillium sp. = assay type: cell-based; settings: cultured at 25° C. for 72 hours
[4] = test system: Stapyhlococcus aureus:FDA209P; assay type: cell-based, Staphylococcus aureus; settings: cultured at 30° C. for 48 hours

[O-2].[Zn+2] [comparative 2, zinc oxide]
width of growth inhibition zone of bacteria, (4) Pseudomonas aeruginosa [1]: E (0 mm)
width of growth inhibition zone of fungus, (3) Candida albicans [2]: D (less than 5.0 mm)
width of growth inhibition zone of bacteria, (5) Escherichia coli [3]: D (less than 2.5 mm)
width of growth inhibition zone of fungus, (2) Aspergillus niger (Aspergillus niger): D (less than 5.0 mm)
width of growth inhibition zone of fungus, (1) Penicillium sp. (Penicillium sp.): E (0 mm)
width of growth inhibition zone of bacteria, (6) Staphylococcus aureus [4]: D (less than 2.5 mm)
